# Library screening results

Sequences of proteins named here, by UniProt entry; tags and fusion partners are left off.
UniProt E9BF75, entry or part of it: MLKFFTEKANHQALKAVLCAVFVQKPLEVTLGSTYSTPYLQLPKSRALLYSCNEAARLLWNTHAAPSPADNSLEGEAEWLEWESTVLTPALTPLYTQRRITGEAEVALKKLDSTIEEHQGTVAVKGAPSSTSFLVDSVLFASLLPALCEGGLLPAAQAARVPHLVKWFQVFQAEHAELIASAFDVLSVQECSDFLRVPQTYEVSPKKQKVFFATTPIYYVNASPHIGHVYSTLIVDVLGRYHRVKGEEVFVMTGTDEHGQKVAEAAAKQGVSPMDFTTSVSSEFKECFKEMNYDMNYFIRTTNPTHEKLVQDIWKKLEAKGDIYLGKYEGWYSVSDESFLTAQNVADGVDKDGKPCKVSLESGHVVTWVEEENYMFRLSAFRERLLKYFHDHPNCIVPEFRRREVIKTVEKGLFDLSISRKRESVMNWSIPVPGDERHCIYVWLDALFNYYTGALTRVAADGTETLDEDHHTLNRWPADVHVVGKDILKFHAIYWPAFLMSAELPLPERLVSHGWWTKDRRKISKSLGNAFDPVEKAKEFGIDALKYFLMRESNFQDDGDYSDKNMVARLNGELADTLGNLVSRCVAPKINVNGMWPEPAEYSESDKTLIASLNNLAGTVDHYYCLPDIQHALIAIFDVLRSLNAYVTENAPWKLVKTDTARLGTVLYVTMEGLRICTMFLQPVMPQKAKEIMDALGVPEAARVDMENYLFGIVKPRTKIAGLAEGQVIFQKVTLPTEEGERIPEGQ

Measurements from “University of Dundee, Small-Polar-MMV Screening Library” (2021), ChEMBL document CHEMBL3988442.

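Primary screen of methionyl-tRNA synthetase; the read-out is not stated. Target: Methionyl-tRNA synthetase (putative), Leishmania donovani (UniProt E9BF75). The test concentration is not given. The values are filed as inhibition. About 68,000 compounds were tested under these conditions; 0.035% (about 24) showed 50% or more at least once.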

All values are in %.
How 0% and 100% were set is not recorded. Most values in the screen are low, and negative values occur.
This is an unselected part of the compounds tested.

| Compound | inhibition |
|---|---|
| `CCOCCNC(=O)c1cc(COc2cncc(Cl)c2)on1` | 8.824 |
| `CCc1nn(C)c(Cl)c1CN1CCCC2(C1)CN(C)C(=O)O2` (centres unmarked) | 18.58 |
| `CN(CCn1nc2ccccn2c1=O)CC(=O)N(C)C1CCCCC1` | 14.72 |
| `Cn1c(=O)n(C)c2cc(NS(=O)(=O)Cc3cccc(F)c3)ccc21` | 2.842 |
| `Cc1cnn(CC2CCCN2Cc2noc(C(C)C)n2)c1` (centres unmarked) | 16.33 |
| `c1cnc(N2CCC3(CCN(CC4CCOC4)CC3)CC2)nc1` (centres unmarked) | 8.125 |
| `CC(=O)N1C[C@@H]2CC[C@H](C1)N(C(=O)CCc1n[nH]c3c1CCCC3)C2` | 19.1 |
| `Cc1nc(NCc2cccnc2)cc(C2COCCN2)n1` (centres unmarked) | 11.05 |
| `Cc1noc(C)c1C(C)C(=O)N1CCCN(Cc2cscn2)CC1` (centres unmarked) | 12.57 |
| `Cn1cccc1C(=O)N1CCC2(CC1)COC(COc1ccccn1)C2` (centres unmarked) | 8.497 |
| `Cn1ncc2c1CCCC2NCc1ccc(Cl)s1` (centres unmarked) | 8.333 |
| `CCCn1ncc(-c2ccnc(NC3CCSC3)n2)c1C` (centres unmarked) | 4.53 |
| `COc1ccc(-c2c[nH]c(C3CC(=O)N(CC(C)C)C3)n2)cc1` (centres unmarked) | 10.65 |
| `Cc1noc([C@@]23CCO[C@@H]2CCN(C(=O)c2cc(C)on2)C3)n1` | 15.96 |
| `CC(=O)N1CCC(c2cncc(N3CCOCC3)n2)CC1` | 16.49 |
| `Cn1cc(CN2CCC3(CC2)CN(c2cccnc2)C(=O)CO3)cn1` | 16.02 |
| `CCn1c(N)nc2cc(C(=O)N3CC(c4ccccn4)C3)cnc21` | 6.948 |
| `CO[C@@H]1CCN(Cc2ccc(C)o2)[C@H]1Cc1ccccc1` | 18.48 |
| `CC(C)Cc1nc(OCC#N)c(C#N)c2c1CCC2` | 3.736 |
| `O[C@H]1CCCC[C@@H]1N1CCN(CCCc2ccc3c(c2)OCO3)CC1` | 8.696 |
| `CCc1nnc(CN2CCN(C(=O)c3ccccn3)CC2)o1` | 13.19 |
| `CC(C)c1ccc(O)c(C(=O)NCc2cc[nH]n2)c1` | 6.383 |
| `COCCN(C)C(=O)c1ccccc1-n1cc(CN(C)C)cn1` | 19.94 |
| `O=C(C1CCOCC1)N1CCOCC(Cc2ncccn2)C1` (centres unmarked) | 11.55 |
| `CNc1nc(CNC(=O)Nc2ccccc2OC(C)C)cs1` | 9.358 |
| `CNc1nc(C)cc(NCc2cc(C)cc3c(C)c(C)[nH]c23)n1` | 34.89 |
| `COc1ncccc1CNC(=O)c1c[nH]c(=O)c(Br)c1` | 13.87 |
| `CCNC(=O)c1cccc(CNC(=O)c2cnc(C(C)(C)C)s2)c1` | -5.602 |
| `CO[C@H]1CCN(C2CCOCC2)C[C@@H]1Cc1ccccc1` | 6.667 |
| `O=C(Cc1ccccn1)N1CCN2C[C@H](Oc3cccc(F)c3)C[C@H]2C1` | -1.684 |
| `CC(=O)N(Cc1noc(C)n1)C1CCN(Cc2ccccc2C#N)C1` (centres unmarked) | 4.167 |
| `c1ccc(-c2nnc(C3CCCN(CC4CCCCC4)C3)o2)nc1` (centres unmarked) | 17.48 |
| `CC(C)(CO)NC(=O)C1CCC(=O)N(Cc2ccc(Cl)cc2)C1` (centres unmarked) | 14.16 |
| `CC(CNC(=O)Nc1cn[nH]c1)N1CCc2ccccc2C1` (centres unmarked) | 17.36 |
| `CC(C)[C@@H]1CN(C(=O)CCc2ccc(F)cc2)C[C@H]1C(=O)O` | 6.949 |
| `COC(=O)Cn1c(=O)nc2n1C(=O)N(c1ccc(Cl)cc1)C2` | 8.148 |
| `Cc1cc(C(=O)N2CCCC(n3cncn3)C2)c(C)n1C1CC1` (centres unmarked) | 2.083 |
| `CC(C)c1noc(-c2ccnc(-n3cnc(C(=O)O)c3)c2)n1` | 15.55 |
| `CCc1ccccc1NC(=O)c1cnn(C)c1C` | 12.11 |
| `CCN1C(=O)C(c2ccccc2)CC12CCN(c1ncccn1)CC2` (centres unmarked) | 10 |
| `Cc1cc(CN2CCOC(CN(C)c3cccnn3)C2)no1` (centres unmarked) | 5.556 |
| `CC(C)C[C@H](N)c1nnc(SCC(=O)Nc2ccc(Br)cc2)o1` | 11.08 |
| `CCS(=O)(=O)NC[C@]12COC[C@H]1CN(Cc1ccccn1)C2` | 19.37 |
| `Cc1nc(C2CCCN2CC(=O)N(Cc2ccsc2)C2CC2)no1` (centres unmarked) | 22.54 |
| `COCCN1CCC2(COCc3c(C)nc(N4CCOCC4)nc32)C1` (centres unmarked) | 10.65 |
| `Cc1nc2[nH]cnc(Nc3cnn(C)c3)c-2n1` | 18.7 |
| `O=S(=O)(c1ccccc1N1CC(n2cccn2)C1)C(F)(F)F` | 10.3 |
| `O=C(c1cccnc1)N1CCCC1c1cc[nH]n1` (centres unmarked) | 3.226 |
| `O=C(NC1CCCC1)N1CCC2(CC1)CC(Oc1cccnc1)CO2` (centres unmarked) | 0.625 |
| `Cc1nc(CN2CCC3(CCN(c4ncc(F)cn4)C3)C2=O)cs1` (centres unmarked) | 9.804 |
| `Brc1ccc2[nH]c3c(c2c1)CCCC3c1nn[nH]n1` (centres unmarked) | 13.44 |
| `O=C(Nc1cccc(N2CCCC2)c1)C1CCCN1c1nccs1` (centres unmarked) | 11.04 |
| `CC(C)[C@H]1CN(C2Cc3ccccc3C2)C[C@@H]1NS(=O)(=O)N(C)C` | 11.6 |
| `COc1ccc(OC)c(C2CCN(C(=O)C3CCS(=O)(=O)CC3)C2)c1` (centres unmarked) | 2.703 |
| `COCC(C)N1CCN(CCc2ccc3c(c2)CCO3)CC1` (centres unmarked) | -0.2288 |
| `CCNC(=O)CN1CCN(c2cc(C)nc(-c3ccncc3)n2)CC1` | 7.726 |
| `O=C(C1CC1)N1CCC(O)(CN2CCN(c3ccccc3)CC2)C1` (centres unmarked) | 15.75 |
| `COc1cc(C)c(C)cc1S(=O)(=O)N(C)CC(=O)Nc1ccon1` | -4.101 |
| `Cn1c(=O)c2sccc2n(CC(=O)Nc2cccc(Cl)c2)c1=O` | 3.429 |
| `CNC(=O)C(C)(C)NC(=O)c1cc(COc2cccc(C(C)=O)c2)[nH]n1` | 11.81 |
| `CN1CCN(Cc2ccccc2Cl)CC12CCC(=O)N(CC1CC1)CC2` (centres unmarked) | 17.73 |
| `N[C@H]1c2ccccc2C[C@@H]1NC(=O)C1CCN(Cc2ccco2)CC1` | 10.08 |
| `COc1ncccc1CNC(=O)Nc1cc(C)nn1C` | 16.91 |
| `CC(OCC(F)(F)F)C(=O)N1CCOCC1` (centres unmarked) | 13.77 |
| `COc1cccc(CN2CCC3(CCN(c4ncc(C)cn4)C3)C2=O)c1` (centres unmarked) | 16.26 |
| `Cc1cc(CN2CCCC2)cc(Oc2ccc(C(F)(F)F)cn2)c1` | 11.02 |
| `COc1ncccc1NC(=O)NC(C)c1nncn1C` (centres unmarked) | 17.48 |
| `Cn1c(=O)oc2cc(Nc3nccnc3C#N)ccc21` | 16.49 |
| `O=C(c1ccc2ccccc2c1)C1CCCN(C(=O)Cn2cnnn2)C1` (centres unmarked) | 4.11 |
| `COc1ccc(CNC[C@H]2COCc3nc4cc(F)ccc4n32)cc1` | 10.44 |
| `CCC(C)NS(=O)(=O)Cc1cccc(NC(=O)c2cc[nH]c2C)c1` (centres unmarked) | 8.807 |
| `N#CCCCOc1cccc(CN2CCCC2c2ccc[nH]2)c1` (centres unmarked) | 15.53 |
| `CCc1n[nH]c(C2CN(CCCOc3cccc(C)c3)CCO2)n1` (centres unmarked) | 11.02 |
| `CC(=O)NC(C)(C)c1noc(C2(C#N)CCCCC2)n1` | 12.32 |
| `Cc1nn(C)c(N(C)C)c1CNCc1cccnc1OC(C)C` | 9.117 |
| `Cc1cnc(N2CCC[C@@H]3CN(CC(=O)N(C)C)C[C@@H]32)nc1` | 4.762 |
| `CN(C)C(=O)c1ccc2c(c1)nc(N1CC[C@H](O)C1)n2C` | 7.003 |
| `CCc1nccn1C1CCCN(C(=O)c2ccc3c(c2)OCCO3)C1` (centres unmarked) | 18.52 |
| `OCC1CCCN1c1cc(NCc2ccsc2)ncn1` (centres unmarked) | 27.32 |
| `COc1ncc(C)cc1NC(=O)CCc1ccccn1` | 15.57 |

Repeated from the top, 8 entries:

With CCOCCNC(=O)c1cc(COc2cncc(Cl)c2)on1 the screen gave 8.824%.
With CCc1nn(C)c(Cl)c1CN1CCCC2(C1)CN(C)C(=O)O2 (centres unmarked) the screen gave 18.58%.
With CN(CCn1nc2ccccn2c1=O)CC(=O)N(C)C1CCCCC1 the screen gave 14.72%.
With Cn1c(=O)n(C)c2cc(NS(=O)(=O)Cc3cccc(F)c3)ccc21 the screen gave 2.842%.
With Cc1cnn(CC2CCCN2Cc2noc(C(C)C)n2)c1 (centres unmarked) the screen gave 16.33%.
With c1cnc(N2CCC3(CCN(CC4CCOC4)CC3)CC2)nc1 (centres unmarked) the screen gave 8.125%.
With CC(=O)N1C[C@@H]2CC[C@H](C1)N(C(=O)CCc1n[nH]c3c1CCCC3)C2 the screen gave 19.1%.
With Cc1nc(NCc2cccnc2)cc(C2COCCN2)n1 (centres unmarked) the screen gave 11.05%.